PubChem BioAssay AID1159578 – Peter MacCallum Cancer Centre – 2015
This is a random part of about 18,000 reagents. About 1,030 of all reagents (5.7%) were called active. 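Inactive calls also include pools with fewer than 3300 nuclei, whose migration was not assessed.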 Raw values vary from plate to plate and are shown uncorrected. A number with no mark means an inactive call.

Screen: 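Genome-wide hunt for genes controlling movement of lymphatic endothelial cells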 (primary screen)
Cells: human lymphatic endothelial cells
Knock-down reagent: siRNA pool against human genes, 40 nM
Timing: 48 h after transfection
Read-out: 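High-content imaging of dye-stained cells in a scratch assay measures filled wound area and nuclei per well; duplicate means given as ratio to mock and robust z-score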
Direction: migration robust z-score: higher = faster migration into the scratch; migration relative to mock: higher = more scratch area covered than mock; nuclei per well: higher = more cells in the well
Rule for the call: 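Pools averaging fewer than 3300 nuclei are never called; remaining pools count as changed when migration robust z lies outside -2 to 2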
Meaning of the calls: active = migration changed; inactive = no migration change, or too few cells

gene symbol	migration robust z-score	migration class with cell-count check	migration relative to mock	nuclei per well, duplicate mean
DOCK3 (dedicator of cytokinesis 3)	0.86	migration z between -2 and 2; enough cells	1.11	5830
PIR (pirin)	0.75	migration z between -2 and 2; enough cells	0.95	4698
PRDM7 (PR/SET domain 7)	-0.91	migration z between -2 and 2; enough cells	0.65	5800
TACC3 (transforming acidic coiled-coil containing protein 3)	0.43	migration z between -2 and 2; enough cells	1	6850
SCRIB (scribble planar cell polarity protein)	-0.24	migration z between -2 and 2; enough cells	0.82	5616
ARID3C (AT-rich interaction domain 3C)	-0.01	migration z between -2 and 2; enough cells	0.88	5114
PPP1R3A (protein phosphatase 1 regulatory subunit 3A)	-0.18	migration z between -2 and 2; enough cells	0.77	6264
S100PBP (S100P binding protein)	1.97	migration z between -2 and 2; enough cells	1.4	6716
KCNV1	0.13	migration z between -2 and 2; enough cells	0.83	4736
TEFM (transcription elongation factor, mitochondrial)	0.28	migration z between -2 and 2; enough cells	0.96	6212
ALKBH3 (alkB homolog 3, alpha-ketoglutarate dependent dioxygenase)	-0.41	migration z between -2 and 2; enough cells	0.78	6922
NGB (neuroglobin)	0.8	migration z between -2 and 2; enough cells	1.09	5918
RPL7L1 (ribosomal protein L7 like 1)	-1.67	migration z between -2 and 2; enough cells	0.45	4670
GPR139 (G protein-coupled receptor 139)	-0.05	migration z between -2 and 2; enough cells	0.8	5817
SEMA3C (semaphorin 3C)	-1.44	migration z between -2 and 2; enough cells	0.52	4049
IFNLR1 (interferon lambda receptor 1)	0.57	migration z between -2 and 2; enough cells	0.92	6818
STK25 (serine/threonine kinase 25)	-1.35	migration z between -2 and 2; enough cells	0.55	5868
NDEL1 (nudE neurodevelopment protein 1 like 1)	-1.14	migration z between -2 and 2; enough cells	0.6	4536
DENND4C (DENN domain containing 4C)	-0.28	migration z between -2 and 2; enough cells	0.81	6600
PITPNC1 (phosphatidylinositol transfer protein cytoplasmic 1)	-0.16	migration z between -2 and 2; enough cells	0.84	5952
INSC (INSC spindle orientation adaptor protein)	-0.7	migration z between -2 and 2; enough cells	0.7	7307
ZNF205 (zinc finger protein 205)	-0.6	migration z between -2 and 2; enough cells	0.73	5814
ZNF264 (zinc finger protein 264)	-0.22	migration z between -2 and 2; enough cells	0.82	6674
CHDH (choline dehydrogenase)	-1.29	migration z between -2 and 2; enough cells	0.55	3586

Records listed so far whose gene name starts with S or s:
gene symbol	migration robust z-score	migration class with cell-count check	migration relative to mock	nuclei per well, duplicate mean
SCRIB (scribble planar cell polarity protein)	-0.24	migration z between -2 and 2; enough cells	0.82	5616
S100PBP (S100P binding protein)	1.97	migration z between -2 and 2; enough cells	1.4	6716
SEMA3C (semaphorin 3C)	-1.44	migration z between -2 and 2; enough cells	0.52	4049
STK25 (serine/threonine kinase 25)	-1.35	migration z between -2 and 2; enough cells	0.55	5868

Further results:
gene symbol	migration robust z-score	migration class with cell-count check	migration relative to mock	nuclei per well, duplicate mean
THEM4 (thioesterase superfamily member 4)	-0.52	migration z between -2 and 2; enough cells	0.75	5559
CPEB2 (cytoplasmic polyadenylation element binding protein 2)	0.94	migration z between -2 and 2; enough cells	1.13	5640
KLK10 (kallikrein related peptidase 10)	-0.96	migration z between -2 and 2; enough cells	0.62	5933
FRMPD1 (FERM and PDZ domain containing 1)	0.71	migration z between -2 and 2; enough cells	1.07	6261
SBNO1 (strawberry notch homolog 1)	-0.57	migration z between -2 and 2; enough cells	0.74	5760
DLGAP2 (DLG associated protein 2)	1.78	migration z between -2 and 2; enough cells	1.35	6952
DIRAS2 (DIRAS family GTPase 2)	-1.03	migration z between -2 and 2; enough cells	0.6	4546
PARP3 (poly(ADP-ribose) polymerase family member 3)	-0.39	migration z between -2 and 2; enough cells	0.78	6772
STRIP1 (striatin interacting protein 1)	0.78	migration z between -2 and 2; enough cells	1.09	6524
RUSC1 (RUN and SH3 domain containing 1)	-0.2	migration z between -2 and 2; enough cells	0.83	5277
CNN3 (calponin 3)	0.7	migration z between -2 and 2; enough cells	1.07	5252
NFATC4 (nuclear factor of activated T cells 4)	-2.54 (active)	migration z below -2; enough cells	0.32	6216
INSM1 (INSM transcriptional repressor 1)	1.15	migration z between -2 and 2; enough cells	1.02	5392
PPP4R2 (protein phosphatase 4 regulatory subunit 2)	0.22	migration z between -2 and 2; enough cells	0.94	7067
AGGF1 (angiogenic factor with G-patch and FHA domains 1)	1.84	migration z between -2 and 2; enough cells	1.36	7262
